This test can be described thus: qHTS Assay for Lipid Storage Modulators in Drosophila S3 Cells.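 As to cell number change: cells counted by Cell Tracker Red CMTPX staining in the red channel.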 As to conditions: BODIPY lipid droplet fluorescence, 18-24 h; for cell number change: measured here: cell count max response, cells fed with added oleic acid. Summed up:
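Laser-scanning cytometry quantifies lipid droplet accumulation (500–530 nm total intensity; droplet/cell object ratio) in oleic acid-fed (400 uM added) Drosophila S3 cells treated with a concentration series. 20 uM Triacsin C defined 100% inhibition.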
On the technique in general: qHTS replaces the single test concentration by a dilution series.

Setting [1] is: measured here: cell number channel AC50, cells fed with added oleic acid.
The mark [2] stands for this setting: measured here: lipid fluorescence (Fed channel) AC50, cells fed with added oleic acid.

In PubChem BioAssay AID2685 (National Center for Advancing Translational Sciences (NCATS), 2010) one finds cell number change and AC50 data, which are given here for 41 compounds.

The structures appear in SMILES notation. The list shows a part of the results. Further columns of the screen follow, without active or inactive calls. Most of these compounds were active or inconclusive in the main read-out, so they are no random draw. Potencies come from curve fits of mixed quality, noted in brackets.

In general, AC50 refers to the concentration at which the activity in the assay is half-maximal. `O=C(c1ccc(Br)cc1)N1CCCC1`: the cell number change worked out at 14.4%. Moreover, the AC50 under setting [1] was 1.16 µM [rising, partial curve].
Consider `CC(C)(C)c1cc(C(=O)Nc2ccc(F)cc2)n(Cc2ccc(F)cc2)n1`, for which the cell number change was -28%.
Still for that read-out and setting: under `COC(=O)N/N=C1/C/C(=N\NC(=O)OC)c2ccccc21` stands 24.2%; under `CN(C)c1ccc(-c2nc3ccccc3c(=O)[nH]2)cc1`, 18.2%.
For `COc1ccc(NC(=O)c2ccc(N3C(=O)C4CC=C(Cl)CC4C3=O)cc2)cc1` (stereo unspecified), the cell number change is -6.26%. For the same compound, under setting [2], the AC50 was 18.4 µM [falling, single point].
Consider `CCCNC(=O)c1cc(Cl)c(NC(=O)C2=C(C)OCCS2)cc1OC`, for which the cell number change amounted to 36.6%. Further, the AC50 under setting [1] was 0.00461 µM [rising, full curve, poor fit]. For the same compound, the AC50 under setting [2] is 4.11 µM [rising, single point].
Regarding `O=C(c1ccc(C(F)(F)F)cc1)N1CCCCC1`, the cell number change was -9.2%. Further, the AC50 under setting [2] is 16.4 µM [falling, partial curve].
In the case of `O=C(CCS(=O)(=O)c1ccc(Br)cc1)N1CCN(c2ccc(F)cc2)CC1`, the cell number change is 13.7%.
For `CCCn1c(=O)[nH]c(=O)c2c1nc(-c1ccc(OC(F)(F)C(F)C(F)(F)F)cc1)n2CCOC` (stereo unspecified), the cell number change is -15.1%. The AC50 under setting [2] was 0.259 µM [rising, full curve, poor fit].
Turning to `O=S(=O)(c1ccc2ccccc2c1)N1CCN(C2Cc3ccccc3C2)CC1`, the cell number change came out at 33.1%. The AC50 under setting [1] was 29.1 µM [rising, single point]. Further, under setting [2], the concentration at half-maximal activity (AC50) is 1.64 µM [rising, partial curve].
As for `COC(=O)C1=CO[C@@H](O[C@@H]2O[C@H](CO)[C@@H](O)[C@H](O)[C@H]2O)C2C1C[C@H](O)[C@@H]2C` (stereo partly specified), the cell number change is 15.9%. In addition, under setting [1], the AC50 was 6.51 µM [falling, single point]. The concentration at half-maximal activity (AC50) under setting [2] was 6.51 µM [falling, partial curve, poor fit].
Take `CC1CCCCC1NC(=O)COC(=O)/C=C/c1ccc2c(c1)OCO2` (stereo unspecified): the AC50 under setting [2] was 23.1 µM [rising, single point].
Turning to `CCN(CC(=O)Nc1ccccc1OC)C(=O)c1ccc(NC(=O)c2cccs2)cc1`, the cell number change is -39.5%.
In the case of `Fc1ccc(-c2csc(N3CCSCC3)n2)cc1`, the cell number change was 52%. Further, the AC50 under setting [1] was 0.146 µM [rising, partial curve, poor fit].
For `Cc1cc(=O)[nH]c(SCC(=O)Nc2ccc(Br)cc2)c1C#N`, the cell number change is -10.7%. Further, the AC50 under setting [2] is 18.4 µM [falling, single point].
`CC(Nc1ccc(Cl)cc1)c1cc(Cl)ccc1O` (stereo unspecified): the cell number change is -60.2%. In addition, the AC50 under setting [1] is 5.17 µM [falling, full curve]. Besides, under setting [2], the half-maximal activity concentration (AC50) was 8.2 µM [falling, partial curve].
Consider `O=C(O)Cc1ccc(C(=O)c2ccccc2)s1`, for which the cell number change is 23.7%. Moreover, under setting [2], the concentration at half-maximal activity (AC50) is 29.1 µM [rising, single point].
Turning to `COc1cccc(-n2c(=O)c3ccccc3n3c(=S)[nH]nc23)c1`, the cell number change worked out at 30.8%. Also, under setting [1], the AC50 is 2.91 µM [rising, partial curve, poor fit]. For the same compound, under setting [2], the AC50 was 0.259 µM [falling, partial curve].
`O=C(Nc1cccc2ncccc12)c1cc(Br)ccc1Cl`: the cell number change is -33%. Also, the AC50 under setting [1] was 0.366 µM [falling, partial curve, poor fit].
As to `O=C(NC1CCOc2ccccc21)C1CCCC1` (stereo unspecified), the cell number change was 7.83%.
Same read-out and setting: then `O=C1c2ccccc2C(O)(c2ccccc2)N1C1CC1` (stereo unspecified), with -1.52%.
For `Cc1ccc(Cl)cc1N1CCN(Cc2nc3c(c(=O)[nH]c(=O)n3C)n2Cc2ccccc2F)CC1`, the cell number change worked out at 96.7%. Moreover, the AC50 under setting [1] was 10.3 µM [rising, partial curve, poor fit]. Moreover, the half-maximal activity concentration (AC50) under setting [2] was 23.1 µM [rising, partial curve].
Turning to `O=C1N=C(N2CCOCC2)CS1`, the cell number change is -125%. Also, the AC50 under setting [2] is 29.1 µM [falling, single point].
Take `NC(=O)c1ccsc1NC(=O)CS(=O)(=O)c1ccc(F)cc1`: the cell number change was -9.18%.
As for `O=c1cc(NCCO)c2ccccc2o1`, the cell number change was -9.65%. Under setting [2], the AC50 is 1.16 µM [falling, single point].
Regarding `Cc1cc(CC(C)C)n(-c2nc3ccccc3c(=O)n2OCC(N)=O)n1`, the cell number change stood at 66.8%. For the same compound, under setting [1], the AC50 is 6.51 µM [rising, partial curve]. The concentration at half-maximal activity (AC50) under setting [2] was 5.8 µM [rising, full curve].
In the case of `CCN(CCn1cccn1)C(=O)c1cc(COc2ccc(F)c(F)c2)on1`, the cell number change was found to be 1.15%.
For `CC1CCN(C(=S)c2ccc(-c3ccc(Cl)cc3Cl)o2)CC1`, the cell number change is -77.8%. The AC50 under setting [1] was 29.1 µM [falling, single point]. In addition, the AC50 under setting [2] is 23.1 µM [falling, single point].
On to `CSc1ccc(S(=O)(=O)N2CCC(C(=O)NCC3CCCO3)CC2)cc1` (stereo unspecified), for which, under setting [2], the concentration at half-maximal activity (AC50) was 3.26 µM [falling, single point].
For `O=C(O)c1ccc(NS(=O)(=O)c2cccc(C(=O)Nc3ccc([N+](=O)[O-])cc3)c2)cc1`, the cell number change worked out at 15.8%. Also, under setting [2], the AC50 is 29.1 µM [rising, single point].
Consider `O=c1[nH]ncc(N/N=C\c2ccc(O)cc2O)c1Cl`, for which the cell number change was -7.33%. Also, under setting [1], the half-maximal activity concentration (AC50) is 2.59 µM [rising, single point]. In addition, under setting [2], the AC50 was 29.1 µM [falling, single point].
Consider `CCCCn1c(SCC(=O)Nc2nc(C)cs2)nnc1-c1cccnc1`, for which the cell number change is 1.59%.
With `CCC(Oc1ccc(C)cc1)C(=O)Nc1ccccc1C(=O)N1CCOCC1` (stereo unspecified), the cell number change is -2.31%. The concentration at half-maximal activity (AC50) under setting [2] is 0.146 µM [rising, full curve, poor fit].
As for `O=S(=O)(Nc1c(S(=O)(=O)c2ccccc2)c2nc3ccccc3nc2n1C1CCCCC1)c1ccccc1`, the cell number change came out at 16.9%. In addition, the half-maximal activity concentration (AC50) under setting [2] is 5.8 µM [rising, partial curve].
In the case of `Cc1csc(SCC(=O)NCc2ccccc2)n1`, the cell number change was 8.74%.
Still for that read-out and setting: then `C=CCc1cccc(/C=N/NC(=O)C[n+]2ccccc2)c1O`, with 3.54%.
Turning to `Cc1ccc(OCc2ccc(C(=O)Nc3cc(C)on3)o2)c([N+](=O)[O-])c1`, the cell number change amounted to 2.6%. The AC50 under setting [2] is 1.84 µM [rising, single point].
As to `O=C(O)C(Cc1ccccc1)n1cnnn1` (stereo unspecified), the cell number change was -28.2%. Besides, the AC50 under setting [1] was 0.00461 µM [falling, full curve, poor fit].
Turning to `CCOC(=O)N1CCN(c2c(N3CCN(c4ccccc4OC)CC3)c(=O)c2=O)CC1`, the AC50 under setting [2] is 6.51 µM [falling, single point].
Turning to `COCCCNC(=O)CN1C(=O)/C(=C/c2ccccc2C)Sc2ccccc21`, the cell number change came to 17.3%. The AC50 under setting [2] was 0.231 µM [rising, full curve, poor fit].
For the compound `CC(C)(C)C(=O)Oc1cc(N)n(S(=O)(=O)c2ccc(F)cc2)n1`, the cell number change was -36.9%. The AC50 under setting [1] is 32.6 µM [falling, single point].
